Literature values, collected in patent US20080085293A1, “Drug eluting stent and therapeutic methods using c-Jun N-terminal kinase inhibitor” (priority 2006, published 2008).
At least one compound was matched to its structure with a doubt left.

Test system: plaque formation
Details: animal model

Oc1c2ccccc2c2c3c(cccc13)N=N2 [SP600125, anthra(1,9-cd)pyrazol-6(2H)-one 1,9-pyrazoloanthrone]
plaque formation: can reduce plaque formation
